# Experimental data as given in patent publication US20080248024A1, “THERAPEUTIC AGENT FOR CANCER, INFLAMMATION, AND AUTO-IMMUNE DISEASE CONTAINING INHIBITOR OF ZINC FINGER PROTEIN 91” (Korea Research Institute of Bioscience and Biotechnology, priority 2007, published 2008).
# For at least one compound, name, drawing or mass did not settle the structure.
# System: ZFP91 promoter
# Assay: ZFP91 promoter luciferase reporter assay (pGL3-ZFP91prom-LUC)
# Format: cell-based, human
# Details: stomach cancer cell line transfected with pGL3-ZFP91prom-LUC
structure (smiles),measurement,value
CC(=O)N(O)CCCCCNC(=O)CCC(=O)N(O)CCCCCNC(=O)CCC(=O)N(O)CCCCCN [deferoxamine],ZFP91 promoter activity,significantly increased
